Source: PubChem BioAssay AID912 (NCATS, 2007).

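A cell-based FRET test of anthrax lethal toxin entry, tracked through the 460 nm emission signal; the cell line is not named here.
Each compound was tested as a concentration series from about 0.0005 to 40 µM.
The number is the fitted AC50 of the 460 nm signal alone; lower values mean a more potent effect. A falling signal goes with compounds filed as inhibitors or cytotoxic, a rising one with activators or fluorescent compounds (inferred from the filed classes).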

Values are in µM.
Common to all entries: measured here: 460 nm channel.
Part of the compounds only, not a random draw; the main read-out is not listed here.
A potency from a partial, single-point or poor curve is only a rough figure.
The first word of each remark tells which way the curve ran; it can be opposite to the aim of the assay.

| # | compound | AC50 (µM) | remark |
|---|---|---|---|
| 1 | `COCCNC(=O)c1c(NC(=O)c2ccco2)n(Cc2ccccc2)c2nc3ccccc3nc12` | 0.5012 | rising, full curve |
| 2 | `CN1CCN(c2nc(-c3cccc(C#N)c3)nc3ccccc23)CC1` | 0.1995 | falling, full curve |
| 3 | `Cn1c(=O)c(-c2ccc(Cl)cc2)nc2cnc(Oc3cccc(Cl)c3)nc21` | 10 | rising, partial curve |
| 4 | `CCOC(=O)Nc1nnc(-c2ccc(OC)c(OC)c2)s1` | 1 | falling, single point |
| 5 | `O=C(O)C(Cl)(c1ccccc1)c1ccccc1` | 1 | falling, single point |
| 6 | `Cc1ccc(S(=O)(=O)Nc2ccc3oc(=O)sc3c2)c(C)c1` | 3.981 | falling, partial curve |
| 7 | `O=C(COC(=O)c1ccccc1C(=O)c1ccccc1)c1ccco1` | 12.59 | rising, partial curve |
| 8 | `CN(C)c1ncc2nc(CCc3ccccc3)c(=O)n(C3CC3)c2n1` | 10 | rising, partial curve |
| 9 | `OCC(Cl)CCl` (centres unmarked) | 5.012 | falling, partial curve |
| 10 | `Cc1cc(C)c2c(CN3CCN(C)CC3)cc(=O)oc2c1` | 31.62 | falling, single point |
| 11 | `Cc1sc(NC(=O)c2ccco2)c(C(c2cccnc2)N2CCN(c3ccc(F)cc3)CC2)c1C` (centres unmarked) | 12.59 | falling, partial curve |
| 12 | `COc1ccc(Cc2nn3c(-c4ccccc4Br)nnc3s2)cc1` | 0.1 | falling, single point |
| 13 | `Cn1c(=O)c(C(=O)NC2CCCCCCC2)c(O)c2ccccc21` | 3.981 | falling, partial curve |
| 14 | `Cn1c(-c2c(N)n(C3CCCC3)c3nc4ccccc4nc23)nc2ccccc21` | 3.981 | rising, partial curve |
| 15 | `COc1ccccc1-c1ccc2ncnc(N3CCN(C)CC3)c2c1` | 10 | falling, partial curve |
| 16 | `CSc1nsc(SCC(=O)N2CCCc3ccccc32)n1` | 10 | falling, single point |
| 17 | `Cc1nn(-c2ccccc2)c2sc(C(=O)N(CC(=O)NC3CCCC3)Cc3ccco3)cc12` | 10 | rising, single point |
| 18 | `COc1cccc(Nc2ncc3nc(-c4ccc(F)cc4)c(=O)n(CCC#N)c3n2)c1` | 12.59 | rising, partial curve |
| 19 | `O=C(O)Cn1c(O)c(C=Nc2ccccc2)sc1=S` | 5.012 | rising, single point |
| 20 | `COc1ccc(S(=O)(=O)n2cnc3cc(C)c(C)cc32)cc1C` | 6.31 | falling, partial curve |
| 21 | `c1ccc(COn2nnc3ccccc32)c(COn2nnc3ccccc32)c1` | 10 | falling, single point |
| 22 | `COc1cc2c(cc1OC)C(c1ccc(N)cc1)=NNC(=O)C2` | 15.85 | falling, single point |
| 23 | `O=C(CN(C1CCCCC1)S(=O)(=O)c1ccc(Cl)cc1)NCc1ccncc1` | 5.012 | falling, single point |
| 24 | `CCNc1ncc2nc(-c3ccc(F)cc3)c(=O)n(C[C@H]3CCCO3)c2n1` | 5.012 | rising, partial curve |
| 25 | `CO[C@H]1OC[C@@]2(C)[C@@H]3C4=C(CN2C(=O)OC(C)(C)C)[C@H](C)[C@H](CO)[C@H](CO)[C@H]4CC[C@H]13` | 12.59 | rising, single point |
| 26 | `O=C(NCc1ccco1)c1cccc(-c2nnc(-c3ccccc3)o2)c1` | 5.012 | falling, single point |
| 27 | `CCOC(=O)Cc1csc(NC(=O)CSc2nnnn2-c2ccc(CC)cc2)n1` | 19.95 | falling, single point |
| 28 | `COc1cccc(Cn2c(=O)cnc3cnc(N4CCN(C)CC4)nc32)c1` | 12.59 | rising, partial curve |
| 29 | `Cc1cc(OCc2ccc(F)cc2)nc(-c2ccccc2O)n1` | 12.59 | falling, partial curve |
| 30 | `CC(C)C(c1nnnn1C1CCCC1)N1CCCc2ccccc21` (centres unmarked) | 10 | falling, partial curve |
| 31 | `CCc1nnc(NC(=O)CCC(=O)Nc2ccccc2)s1` | 0.003162 | falling, full curve |
| 32 | `CCC(=O)Nc1cccc(NC(=O)c2cc3ccccc3o2)c1` | 12.59 | falling, single point |
| 33 | `Cc1n[nH]c(C)c1S(=O)(=O)N(CC(=O)Nc1ccc2c(c1)OCCO2)c1ccc(C(C)C)cc1` | 25.12 | falling, partial curve |
| 34 | `CN(Cc1cc(C(C)(C)C)cc(Br)c1O)Cc1cc(C(C)(C)C)cc(Br)c1O` | 2.512 | falling, single point |
| 35 | `CCN1C(=O)c2cccc3cccc1c23` | 3.981 | rising, full curve |
| 36 | `CCOc1ccc(NC(=O)CSc2nnc(-c3ccccc3)n2N)cc1` | 1.585 | rising, partial curve |
| 37 | `O=C(c1ccco1)N1CCN(C(c2ccccn2)c2nnnn2C2CCCC2)CC1` (centres unmarked) | 0.7943 | rising, full curve, poor fit |
| 38 | `Cc1ccc(S(=O)(=O)N(C)c2ccc(OCC(=O)OCc3c(C)noc3C)cc2)cc1` | 19.95 | rising, partial curve |
| 39 | `CCOC(=O)CBr` | 1.995 | falling, full curve, poor fit |
| 40 | `Cn1c(=O)c2c(nc(Oc3ccc(-c4ccccc4)cc3)n2C)n(C)c1=O` | 5.012 | falling, single point |
| 41 | `COC(=O)C1=CN(CCCN2CCCC2=O)C=C(C(=O)OC)C1c1ccccc1C(F)(F)F` | 10 | rising, partial curve |
| 42 | `CC(C)(C)C(=O)[C@@H]1[C@@H]2C(=O)N(c3ccc4c(c3)OCCO4)C(=O)[C@@H]2C2c3ccccc3C=CN21` (some centres unmarked) | 0.05012 | falling, full curve |
| 43 | `CCNc1ncc2nc(-c3ccc(OC)cc3)c(=O)n(CCC#N)c2n1` | 5.012 | rising, partial curve |
| 44 | `COc1cc2ccc(=O)oc2c(O)c1OCC=C(C)C` | 25.12 | rising, partial curve |

The last 5 entries again:

{"compound": "Cn1c(=O)c2c(nc(Oc3ccc(-c4ccccc4)cc3)n2C)n(C)c1=O", "AC50 (µM)": "5.012", "remark": "falling, single point"}
{"compound": "COC(=O)C1=CN(CCCN2CCCC2=O)C=C(C(=O)OC)C1c1ccccc1C(F)(F)F", "AC50 (µM)": "10", "remark": "rising, partial curve"}
{"compound": "CC(C)(C)C(=O)[C@@H]1[C@@H]2C(=O)N(c3ccc4c(c3)OCCO4)C(=O)[C@@H]2C2c3ccccc3C=CN21", "stereo": "some centres unmarked", "AC50 (µM)": "0.05012", "remark": "falling, full curve"}
{"compound": "CCNc1ncc2nc(-c3ccc(OC)cc3)c(=O)n(CCC#N)c2n1", "AC50 (µM)": "5.012", "remark": "rising, partial curve"}
{"compound": "COc1cc2ccc(=O)oc2c(O)c1OCC=C(C)C", "AC50 (µM)": "25.12", "remark": "rising, partial curve"}